Laboratory results taken from paper doi:10.1101/2022.05.27.493676.
No constants are given. Whether binding was seen depends on the method and setting. Some binding calls cover weakened binding; strength is not graded here. For part of these data: Where a sequence is shown, tags or fusion partners need not be part of it.

By UniProt entry, the sequences of proteins in these tests, tags left out. Where a name states a change or a piece, a line headed by the entry shows the natural chain unless it says otherwise.
UniProt Q8TEK3: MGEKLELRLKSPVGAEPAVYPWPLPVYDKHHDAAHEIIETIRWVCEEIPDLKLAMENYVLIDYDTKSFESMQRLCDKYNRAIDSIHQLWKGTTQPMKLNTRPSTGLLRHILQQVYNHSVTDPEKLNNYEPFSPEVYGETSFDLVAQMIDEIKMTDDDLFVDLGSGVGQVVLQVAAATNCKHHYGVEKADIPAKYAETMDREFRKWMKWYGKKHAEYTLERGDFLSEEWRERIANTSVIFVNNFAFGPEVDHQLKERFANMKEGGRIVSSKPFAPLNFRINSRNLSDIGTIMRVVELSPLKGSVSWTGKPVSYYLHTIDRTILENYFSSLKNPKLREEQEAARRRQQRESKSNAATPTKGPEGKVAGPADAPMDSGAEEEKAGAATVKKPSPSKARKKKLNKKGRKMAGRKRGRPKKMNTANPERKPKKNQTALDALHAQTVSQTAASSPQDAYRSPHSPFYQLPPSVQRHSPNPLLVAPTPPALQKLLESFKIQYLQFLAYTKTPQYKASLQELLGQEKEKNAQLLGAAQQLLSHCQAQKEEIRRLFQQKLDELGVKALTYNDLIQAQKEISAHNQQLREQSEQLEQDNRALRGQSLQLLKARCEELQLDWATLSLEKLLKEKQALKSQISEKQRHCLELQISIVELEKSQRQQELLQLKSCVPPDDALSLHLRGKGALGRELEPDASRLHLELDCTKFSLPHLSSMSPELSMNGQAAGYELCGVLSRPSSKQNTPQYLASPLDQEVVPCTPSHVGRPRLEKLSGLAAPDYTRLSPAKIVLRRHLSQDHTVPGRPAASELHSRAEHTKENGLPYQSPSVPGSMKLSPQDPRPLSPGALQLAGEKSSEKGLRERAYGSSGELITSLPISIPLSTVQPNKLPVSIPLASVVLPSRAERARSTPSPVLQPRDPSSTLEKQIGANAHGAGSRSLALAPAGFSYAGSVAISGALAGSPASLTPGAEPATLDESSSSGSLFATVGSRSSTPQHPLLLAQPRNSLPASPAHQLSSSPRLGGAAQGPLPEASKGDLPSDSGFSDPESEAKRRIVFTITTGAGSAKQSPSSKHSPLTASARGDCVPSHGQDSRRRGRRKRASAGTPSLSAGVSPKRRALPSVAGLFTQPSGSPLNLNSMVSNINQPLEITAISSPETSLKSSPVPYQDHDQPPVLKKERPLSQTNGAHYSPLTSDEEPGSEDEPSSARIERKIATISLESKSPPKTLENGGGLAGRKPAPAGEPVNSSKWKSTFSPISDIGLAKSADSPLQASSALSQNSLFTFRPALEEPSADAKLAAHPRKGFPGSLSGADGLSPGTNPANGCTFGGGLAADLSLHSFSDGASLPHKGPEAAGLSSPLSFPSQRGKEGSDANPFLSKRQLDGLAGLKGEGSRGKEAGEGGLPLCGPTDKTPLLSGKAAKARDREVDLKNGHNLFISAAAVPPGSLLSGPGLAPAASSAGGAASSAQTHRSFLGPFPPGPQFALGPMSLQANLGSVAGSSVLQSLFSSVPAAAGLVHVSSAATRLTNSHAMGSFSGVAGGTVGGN
UniProt Q6XZL8: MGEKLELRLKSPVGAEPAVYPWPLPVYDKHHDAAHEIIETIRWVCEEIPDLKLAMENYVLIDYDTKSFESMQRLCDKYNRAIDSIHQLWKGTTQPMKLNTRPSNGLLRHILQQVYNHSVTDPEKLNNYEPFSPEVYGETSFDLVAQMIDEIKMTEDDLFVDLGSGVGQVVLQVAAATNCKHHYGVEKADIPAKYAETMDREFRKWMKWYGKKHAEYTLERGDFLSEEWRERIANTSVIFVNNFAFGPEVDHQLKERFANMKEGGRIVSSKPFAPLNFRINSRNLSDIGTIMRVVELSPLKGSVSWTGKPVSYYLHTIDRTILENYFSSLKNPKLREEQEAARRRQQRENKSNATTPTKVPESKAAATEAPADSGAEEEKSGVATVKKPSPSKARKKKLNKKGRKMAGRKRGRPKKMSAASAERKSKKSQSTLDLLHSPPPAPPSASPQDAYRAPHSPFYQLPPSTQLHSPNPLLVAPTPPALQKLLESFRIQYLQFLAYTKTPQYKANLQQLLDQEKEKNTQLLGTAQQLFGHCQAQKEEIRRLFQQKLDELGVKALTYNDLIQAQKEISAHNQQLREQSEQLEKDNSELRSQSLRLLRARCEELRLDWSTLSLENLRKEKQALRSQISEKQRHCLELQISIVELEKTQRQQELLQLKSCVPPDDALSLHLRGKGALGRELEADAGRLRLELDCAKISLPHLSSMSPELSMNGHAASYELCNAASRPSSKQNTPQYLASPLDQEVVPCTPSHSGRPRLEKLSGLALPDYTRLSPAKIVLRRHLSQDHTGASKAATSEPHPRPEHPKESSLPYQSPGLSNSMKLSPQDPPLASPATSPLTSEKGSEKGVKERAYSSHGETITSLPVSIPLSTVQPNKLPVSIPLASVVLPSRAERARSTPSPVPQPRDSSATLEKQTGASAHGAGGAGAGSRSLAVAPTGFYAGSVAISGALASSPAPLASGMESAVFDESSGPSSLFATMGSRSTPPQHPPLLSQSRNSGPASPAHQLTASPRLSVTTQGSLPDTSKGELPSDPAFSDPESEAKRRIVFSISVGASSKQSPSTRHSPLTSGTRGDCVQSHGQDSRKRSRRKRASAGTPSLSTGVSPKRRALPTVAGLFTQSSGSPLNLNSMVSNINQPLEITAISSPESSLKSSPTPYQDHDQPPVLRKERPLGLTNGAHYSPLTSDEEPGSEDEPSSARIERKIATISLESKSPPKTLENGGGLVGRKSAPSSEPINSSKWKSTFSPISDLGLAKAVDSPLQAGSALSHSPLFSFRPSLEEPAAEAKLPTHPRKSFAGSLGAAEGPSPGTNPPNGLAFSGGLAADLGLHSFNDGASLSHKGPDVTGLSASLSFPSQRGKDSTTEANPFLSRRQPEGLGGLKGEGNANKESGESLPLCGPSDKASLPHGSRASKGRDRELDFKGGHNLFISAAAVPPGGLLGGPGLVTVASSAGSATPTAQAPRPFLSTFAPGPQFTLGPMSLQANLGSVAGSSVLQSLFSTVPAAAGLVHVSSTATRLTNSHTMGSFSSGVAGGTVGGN
UniProt Q08943: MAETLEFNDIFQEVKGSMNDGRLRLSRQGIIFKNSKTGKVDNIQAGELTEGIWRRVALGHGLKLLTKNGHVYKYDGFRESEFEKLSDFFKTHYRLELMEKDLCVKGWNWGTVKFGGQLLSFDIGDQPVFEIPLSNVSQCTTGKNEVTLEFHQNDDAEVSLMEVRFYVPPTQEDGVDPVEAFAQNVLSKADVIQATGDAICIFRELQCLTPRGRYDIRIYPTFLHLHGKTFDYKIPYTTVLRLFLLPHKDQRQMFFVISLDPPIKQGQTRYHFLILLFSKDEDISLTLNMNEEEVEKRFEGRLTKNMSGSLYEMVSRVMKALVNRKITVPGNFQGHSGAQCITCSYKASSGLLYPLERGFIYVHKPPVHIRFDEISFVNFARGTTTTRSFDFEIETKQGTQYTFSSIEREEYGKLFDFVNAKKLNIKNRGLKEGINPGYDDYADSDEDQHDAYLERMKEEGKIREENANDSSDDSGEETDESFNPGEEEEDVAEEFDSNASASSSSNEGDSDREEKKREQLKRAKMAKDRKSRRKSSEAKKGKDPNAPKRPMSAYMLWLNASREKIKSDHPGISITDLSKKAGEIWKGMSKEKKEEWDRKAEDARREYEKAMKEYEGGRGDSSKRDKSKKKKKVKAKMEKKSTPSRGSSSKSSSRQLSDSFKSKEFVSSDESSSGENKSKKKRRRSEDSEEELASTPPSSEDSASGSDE

Columns and labels:
TetR fused to ENL = biological target: T1, TetR fused to ENL (UniProt Q03111); assay: TetR recruitment to a TetO array, read by ChIP-qPCR
T1 sequence: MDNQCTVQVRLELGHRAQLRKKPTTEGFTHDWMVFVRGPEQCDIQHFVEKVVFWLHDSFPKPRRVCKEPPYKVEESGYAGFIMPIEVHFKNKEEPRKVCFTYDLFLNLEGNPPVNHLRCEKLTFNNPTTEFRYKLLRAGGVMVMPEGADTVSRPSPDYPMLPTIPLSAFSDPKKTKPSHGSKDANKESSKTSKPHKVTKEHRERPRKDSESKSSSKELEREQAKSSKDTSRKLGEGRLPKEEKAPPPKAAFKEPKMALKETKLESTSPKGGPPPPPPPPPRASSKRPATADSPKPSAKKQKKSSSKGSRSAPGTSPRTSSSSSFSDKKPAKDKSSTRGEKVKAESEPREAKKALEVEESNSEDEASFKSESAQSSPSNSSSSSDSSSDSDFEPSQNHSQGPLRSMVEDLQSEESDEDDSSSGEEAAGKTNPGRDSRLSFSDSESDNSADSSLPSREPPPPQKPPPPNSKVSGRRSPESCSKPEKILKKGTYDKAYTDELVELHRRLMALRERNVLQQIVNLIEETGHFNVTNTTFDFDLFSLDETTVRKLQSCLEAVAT

TetR fused to DOT1L = TetR fused to DOT1L (UniProt Q8TEK3); assay: as above

| Substance | binding (TetR fused to ENL) | binding (TetR fused to DOT1L) |
| --- | --- | --- |
| DOT1L, endogenous in mESCs (from UniProt Q6XZL8 1-1540) | binds |  |
| FACT, endogenous in mESCs (read through Ssrp1) (from UniProt Q08943 1-708; Q920B9 1-1047) (complex) | binds | binds |
